From paper PMC2683942, “Unc5B Interacts with FLRT3 and Rnd1 to Modulate Cell Adhesion in Xenopus Embryos” (PLoS ONE, 2009)

Amino acid sequences for entries named in this document (tags omitted). A change or cut given only in a name is not applied to a line headed by its entry.
UniProt Q8JGT4: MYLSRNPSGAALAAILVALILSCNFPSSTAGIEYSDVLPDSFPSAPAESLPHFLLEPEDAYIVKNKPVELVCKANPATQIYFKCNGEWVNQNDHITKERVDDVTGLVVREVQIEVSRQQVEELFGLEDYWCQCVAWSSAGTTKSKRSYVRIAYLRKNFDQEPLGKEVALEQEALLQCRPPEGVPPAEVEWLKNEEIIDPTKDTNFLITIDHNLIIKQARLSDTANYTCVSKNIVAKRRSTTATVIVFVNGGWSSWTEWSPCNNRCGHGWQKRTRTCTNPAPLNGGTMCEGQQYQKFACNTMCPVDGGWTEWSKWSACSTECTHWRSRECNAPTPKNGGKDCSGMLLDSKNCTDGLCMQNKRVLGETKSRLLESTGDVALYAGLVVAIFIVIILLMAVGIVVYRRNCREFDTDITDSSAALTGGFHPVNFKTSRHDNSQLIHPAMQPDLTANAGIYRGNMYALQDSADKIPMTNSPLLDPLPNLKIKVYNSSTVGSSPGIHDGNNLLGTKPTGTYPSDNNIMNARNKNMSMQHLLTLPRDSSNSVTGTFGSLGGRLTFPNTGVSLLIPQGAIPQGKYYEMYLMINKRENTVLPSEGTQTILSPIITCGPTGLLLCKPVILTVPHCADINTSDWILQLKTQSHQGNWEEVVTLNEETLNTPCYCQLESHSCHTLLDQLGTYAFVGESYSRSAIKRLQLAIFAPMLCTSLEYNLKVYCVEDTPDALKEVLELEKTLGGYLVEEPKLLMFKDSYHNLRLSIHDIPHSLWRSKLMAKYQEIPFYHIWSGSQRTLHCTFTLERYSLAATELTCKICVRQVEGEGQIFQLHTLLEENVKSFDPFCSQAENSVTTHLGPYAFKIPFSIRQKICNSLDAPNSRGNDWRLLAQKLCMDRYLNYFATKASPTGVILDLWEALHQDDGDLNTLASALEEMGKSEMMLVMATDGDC
UniProt P61586: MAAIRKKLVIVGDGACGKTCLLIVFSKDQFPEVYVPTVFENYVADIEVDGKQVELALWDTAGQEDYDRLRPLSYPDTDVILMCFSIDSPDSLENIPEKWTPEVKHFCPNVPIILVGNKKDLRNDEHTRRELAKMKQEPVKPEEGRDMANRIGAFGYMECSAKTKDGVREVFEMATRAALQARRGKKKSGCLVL

Tests used:
Unc5BΔD (Xenopus) = Unc5BΔD (Xenopus) (UniProt Q8JGT4); experiment: co-IP; lysates of HEK293T cells overexpressing V5- and HA-tagged proteins, immunoprecipitation and immunoblotting
Robo3 = experiment: cell surface binding of an alkaline phosphatase fusion protein, chromogenic stain; transfected HEK293T cells incubated 1 h at RT with concentrated AP-FLRT3ΔTM conditioned medium (3 to 8 U/ml AP activity) in DMEM, 10% FCS, 50 mM HEPES; washed with PBS; bound AP stained with Fast Red
Robo2 = experiment: as above

Row | Molecule | binding (Unc5BΔD (Xenopus)) | binding (Robo3) | binding (Robo2)
1 | RhoA (from UniProt P61586 1-193) | no binding |  | 
2 | soluble alkaline phosphatase-FLRT3 ectodomain fusion protein (AP-FLRT3ΔTM) (domain or fragment, Xenopus, UniProt Q70AK3 29-527, looked up, FLRT3, Xenopus, ectodomain (ΔTM); also called AP-tagged FLRT3ΔTM; source: conditioned medium, concentrated) KPCPSVCRCDAGFIYCNDRDLTSIPSGIPDDATTLYLQNNQINNAGIPSDLKGLDKVERIYLYRNSLDEFPINLPKNVKELHLQENNIRTITYDALLQIPFIEELHLDDNSVSAVSIEDGAFRDNIFLRLLFLSRNHLSTIPWGLPKTIEELRLDDNRISTISEISLQDLTNLKRLVLDGNLLNNNGLGERVFMNLINLTELSLVRNSLTSPPANLPGTSLRKLYLQENHMNYVPPNSFADLTQLYRLDMSNNNLTALPQGIFDDLDNLTQLFLRNNPWYCGCKMKWVRDWLQSLPSKVNVRGLMCQAPERVRGMTIKDLNKELFDCKDRIGSNTIHVTTTMLNSLLPAQGQWPVPVTKQPEIRPPDINKIFRTTPIPVKKIITIQVKSITTETIYISWKVALPMTALRLSWQLGHSPVFGSITETIVTGDRAEYLLTALEPESPYRICMVPMETGNIYLSDETPVCIETETAPLKMYNPTTTLNREQEKEPYKNSSLP |  | no binding (tested: 3 to 8 U/ml AP activity) | no binding (tested: 3 to 8 U/ml AP activity)

No constants are given. Whether binding was seen depends on the method and setting. For part of these data: In cells and extracts the contact can be indirect. For part of these data: Where a sequence is shown, tags or fusion partners need not be part of it.
